Reference: publication PMC11110260

Chains of the proteins cited; added tags and fusions are not shown. Lines headed by an entry give the natural chain unless they say otherwise; changes in a name come on top.
UniProt Q92466: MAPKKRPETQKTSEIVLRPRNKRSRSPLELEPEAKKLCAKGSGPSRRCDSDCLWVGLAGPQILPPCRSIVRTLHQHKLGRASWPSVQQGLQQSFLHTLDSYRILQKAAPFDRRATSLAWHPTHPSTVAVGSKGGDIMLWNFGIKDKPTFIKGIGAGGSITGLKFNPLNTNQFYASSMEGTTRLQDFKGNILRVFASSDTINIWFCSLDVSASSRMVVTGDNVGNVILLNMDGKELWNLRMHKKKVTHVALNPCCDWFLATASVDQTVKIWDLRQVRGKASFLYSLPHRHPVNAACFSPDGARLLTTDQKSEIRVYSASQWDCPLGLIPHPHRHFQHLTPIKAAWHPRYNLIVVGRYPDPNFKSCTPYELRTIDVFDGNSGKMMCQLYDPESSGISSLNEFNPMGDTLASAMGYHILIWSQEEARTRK
UniProt Q04206: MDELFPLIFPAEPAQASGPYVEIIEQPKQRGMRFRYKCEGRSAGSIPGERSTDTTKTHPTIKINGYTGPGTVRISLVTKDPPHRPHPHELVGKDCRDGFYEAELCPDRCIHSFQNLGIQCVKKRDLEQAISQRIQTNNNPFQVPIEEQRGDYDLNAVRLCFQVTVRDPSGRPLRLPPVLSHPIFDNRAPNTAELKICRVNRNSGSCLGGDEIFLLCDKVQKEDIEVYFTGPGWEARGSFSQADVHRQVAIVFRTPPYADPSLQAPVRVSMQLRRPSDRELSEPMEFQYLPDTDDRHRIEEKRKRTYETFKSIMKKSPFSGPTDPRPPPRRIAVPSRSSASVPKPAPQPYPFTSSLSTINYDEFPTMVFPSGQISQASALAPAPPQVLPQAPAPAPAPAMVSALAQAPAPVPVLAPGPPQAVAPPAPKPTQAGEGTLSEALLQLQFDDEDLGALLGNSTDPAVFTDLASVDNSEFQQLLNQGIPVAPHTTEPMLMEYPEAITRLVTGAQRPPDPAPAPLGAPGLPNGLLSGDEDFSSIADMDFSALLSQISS

Molecular target: DDB2^PCNA− (mutant form of DDB2 unable to interact with PCNA), His-tagged (UniProt Q92466)
Test: pull-down; lysates of HEK293 stable clones 7 d after UV-C irradiation (hypotonic buffer: 10 mM Tris-HCl pH 7.4, 2.5 mM MgCl2, 0.5% NP-40, 10 mM imidazole; sonicated), incubated with Ni-NTA resin overnight at 4 °C; His-tagged DDB2 held on the resin; washed with 50 mM Tris-HCl pH 7.4; Western blot with anti-NF-kB p65 and anti-DDB2

- binding: binds
Substance: NF-kB (detected with anti-NF-kB p65) (from UniProt Q04206 1-551)

Results are given in words; binding and its absence hold for the method and conditions named. In cells and extracts the contact can be indirect. Binding can be weak; no strength is given.
